Laboratory results from patent publication US20220331364A1.
Results are given in words; binding and its absence hold for the method and conditions named. Some binding calls cover weakened binding; strength is not graded here.

Biological target: recombinant HER-2 (UniProt P04626)
Assay: flow cytometry; engineered T cells incubated with recombinant HER-2

- binding: binds
B1: Anti-HER-2 DARPin CAR (CD28-based CAR) (protein, not shown: small tags and cut ends)
chain: MSRGSDLGKKLLEAARAGQDDEVRILMANGADVNAKDEYGLTPLYLATAHGHLEIVEVLLKNGADVNAVDAIGFTPLHLAAFIGHLEIAEVLLKHGADVNAQDKFGKTAFDISIGNGNEDLAEILQKLN
